From PubChem BioAssay AID1347076 (National Center for Advancing Translational Sciences (NCATS), 2019)
The campaign covered roughly 400,000 compounds. About 13,000 (3.2%) were called active. Inconclusive means that the source gave no clear call. Such entries were picked first, then a sample of the others. Calls follow the shape of the dose curve; as a rule, active = well fitted cell-killing curve with a large enough effect; inconclusive = small, poorly fitted or top-dose-only effect, or effect the other way; inactive = flat fitted curve, though single readings scatter. Where the call is inconclusive, the potency comes from a doubtful curve fit.

Experiment: qHTS assay for MDR1-selective chemotherapeutics: Primary screen using the drug-selected MDR subline cells KB-V1; also: nearly all actives have a fitted effect of over 60% in size
Conditions: KB-V1 MDR cells viability, CellTiter-Glo, 72 h; activity change, negative = cytotoxicity: at 46.1 µM (top of the series)
Summary of the method: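 Potencies derive from concentration-effect curves fitted to normalized luminescence (CellTiter-Glo) of KB-V1 cells treated for 72 h at 37 degrees C in phenol-red-free DMEM containing 10% FBS.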
% is scaled to controls: 0 for no effect and ±100 for the full control effect; potency is read from the fitted curve at half-maximal effect.

Compound | Potency | activity change, negative = cytotoxicity
O=C(NCc1ccc(F)cc1)c1cccnc1 | inconclusive: 16.4 µM [rising, partial curve, poor fit] | –
CC(C)c1ccc(NC2CCCN(C(=O)c3cnc4ccccn4c3=O)C2)cc1 (stereo not given) | inconclusive: 23.1 µM [cytotoxic, single point] | –
N/C(=N\c1nc2ccccc2o1)NC(=O)c1ccc([N+](=O)[O-])cc1 | inactive | –
Cn1c(COc2ccc(F)cc2)nc2ccccc21 | – | inconclusive: 0.218%
CC(=O)Nc1ccccc1C(=O)C(=O)Nc1cccc(C(=O)N2CC(C)CC(C)C2)c1 (stereo not given) | inconclusive: 16.4 µM [cytotoxic, single point] | –
O=C(/C=C/c1ccccc1)NC(=S)NNC(=O)c1cnccn1 | inconclusive: 0.206 µM [cytotoxic, full curve, poor fit] | –
Cc1nnc2ccc(N3CCOCC3)nn12 | inconclusive: 14.6 µM [rising, partial curve] | –
Cc1ccc(C(C)(C)C)c(OCCCCN2CCCC2)c1 | active: 20.6 µM | –
Cc1ccc(-c2nc3ccc(C)cn3c2Cc2cccc(F)c2)cc1 | inconclusive: 18.4 µM [cytotoxic, partial curve] | –
Cn1c(NCCc2ccccc2)cc(=O)n(C)c1=O | inconclusive: 25.9 µM [rising, single point] | –
S=c1[nH]nc(SCc2ccccc2)c2[nH]cnc12 | inconclusive: 16.4 µM [rising, single point] | –
CCCn1c(=O)c(C(=O)NNS(=O)(=O)c2ccc(C)cc2)c(O)c2ccccc21 | inconclusive: 20.6 µM [cytotoxic, single point] | –
Cc1[nH]c2ccccc2c1C(=O)CN1CCN(C/C=C/c2ccccc2)CC1 | inconclusive: 25.9 µM [cytotoxic, single point] | –
CN1CCn2cnc(C(=O)NCc3ccccc3)c2C1=O | inconclusive: 20.6 µM [rising, single point] | –
Cc1ccc(C(=O)NCC(=O)NCC(c2cccs2)N(C)C)cc1C (stereo not given) | active: 14.6 µM | –
COc1ccc(C)cc1NC(=O)c1ccc(S(=O)(=O)N2CCOCC2)cc1 | active: 16.4 µM | –
Cc1[nH]nc2c1-c1nc3ccccc3nc1C(C)(C)C2 | active: 18.4 µM | –
COc1cccc(/C=C2/Sc3ccc(C(=O)NCCCN4CCCC4)cc3NC2=O)c1 | inconclusive: 18.4 µM [rising, single point] | –
O=C(Nc1ccccc1)/C(=C/c1ccccc1)c1ccccc1 | inconclusive: 25.9 µM [cytotoxic, single point] | –
Fc1ccc(Cc2nnc(-c3cccs3)o2)cc1 | inactive | –

Retrieved by compound from above:
Compound | Potency | activity change, negative = cytotoxicity
O=C(/C=C/c1ccccc1)NC(=S)NNC(=O)c1cnccn1 | inconclusive: 0.206 µM [cytotoxic, full curve, poor fit] | –
Fc1ccc(Cc2nnc(-c3cccs3)o2)cc1 | inactive | –
